Reference: patent publication US8158661B2, “GSK-3 inhibitors” (Noscira, S.A., priority 2004, dated 2012)

Assay: Binding to GSH (incubation, HPLC-UV/MS)
Type: in vitro ADME
Conditions: compound and glutathione 1 mM each, 30 minutes at room temperature

Row | SMILES | % unbinding compound, glutathione
1 | O=c1sn(Cc2ccccc2)c(=O)n1Cc1ccccc1 [2,4-dibenzyl-1,2,4-thiadiazolidine-3,5-dione, reference compound] | 17.1%
2 | O=c1sn(CCc2ccccc2)c(=O)n1Cc1ccccc1 [Compound 1, 2-Phenethyl-4-benzyl-(1,2,4)thiadiazolidine-3,5-dione] | 34.7%
3 | O=c1sn(-c2cccc3ccccc23)c(=O)n1Cc1ccccc1 [Compound 2, 4-Benzyl-2-naphthalen-1-yl-[1,2,4]thiadiazolidine-3,5-dione] | 95.0%
4 | O=c1sn(C23CC4CC(CC(C4)C2)C3)c(=O)n1Cc1ccccc1 [Compound 3, 2-(1-adamantyl)-4-benzyl-[1,2,4]thiadiazolidine-3,5-dione] | 15.0%
5 | Cc1ccc(Cn2sc(=O)n(Cc3ccccc3)c2=O)cc1 [Compound 4, 4-Benzyl-2-(4-methyl-benzyl)-[1,2,4]thiadiazolidine-3,5-dione] | 32.3%
6 | O=c1sn(C(c2ccccc2)c2ccccc2)c(=O)n1Cc1ccccc1 [Compound 6, 4-Benzyl-2-diphenylmethyl-1,2,4-thiadiazolidine-3,5-dione] | 52.0%
7 | COc1ccc(Cn2sc(=O)n(Cc3ccccc3)c2=O)cc1 [Compound 7, 4-Benzyl-2-(4-methoxybenzyl)-[1,2,4]thiadiazolidine-3,5-dione] | 31.0%
8 | Cc1cccc(C(C)(C)C)c1-n1sc(=O)n(Cc2ccccc2)c1=O [Compound 8, 4-Benzyl-2-(2-tert-butyl-6-methyl-phenyl)-(1,2,4)thiadiazolidine-3,5-dione] | 59.4%
9 | O=c1sn(-c2ccccc2Cc2ccccc2)c(=O)n1Cc1ccccc1 [Compound 9, 4-Benzyl-2-(2-benzyl-phenyl)-[1,2,4]thiadiazolidine-3,5-dione] | 71.7%
10 | O=c1sn(-c2ccc(Oc3ccccc3)cc2)c(=O)n1Cc1ccccc1 [Compound 10, 4-Benzyl-2-(4-phenoxyphenyl)-[1,2,4]thiadiazolidine-3,5-dione] | 100.0%
